Results on 1 compound are retold here after paper PMC3904662 (Nature, 2013).

Holding throughout (experiment): biochemical
Assay [1] deals with T1, Δ13 LeuBAT (Aquifex aeolicus, UniProt O67854, A261V/E290S/G24D/G408T/I106S/I262L/I359G/N21Y/P362G/S256G/T254S/T409G/Y265F).
The target of assay [2] is T1, Δ13 LeuBAT. This is another data set of the same source.
Assay [3] deals with wild-type LeuT (Aquifex aeolicus, UniProt O67854). Particulars: saturation binding of 3H-labeled drug, n=3, ±s.e.m.

For the compound `CN[C@H]1CC[C@@H](c2ccc(Cl)c(Cl)c2)c2ccccc21` [sertraline], the Kd (as a rule, the concentration at which binding is half-saturated) in assay [1] came to 18 nM; in assay [3], 308 ± 63 nM. In addition, the affinity in assay [2] corresponds to a Ki of 14 ± 2 nM.
